Data on one molecule can be found in paper PMC10723533.

Results are given in words; binding and its absence hold for the method and conditions named. Binding seen in cells or lysates may run through a third protein. Here binding means that the protein was enriched with, or labelled near, the bait; the list need not be complete. For some assays here: Tags and fused reporters may be left off the sequences shown.

The target of one assay is T1, Paa1-L-YFP (S. pombe) (UniProt Q9UT08).
T1 sequence: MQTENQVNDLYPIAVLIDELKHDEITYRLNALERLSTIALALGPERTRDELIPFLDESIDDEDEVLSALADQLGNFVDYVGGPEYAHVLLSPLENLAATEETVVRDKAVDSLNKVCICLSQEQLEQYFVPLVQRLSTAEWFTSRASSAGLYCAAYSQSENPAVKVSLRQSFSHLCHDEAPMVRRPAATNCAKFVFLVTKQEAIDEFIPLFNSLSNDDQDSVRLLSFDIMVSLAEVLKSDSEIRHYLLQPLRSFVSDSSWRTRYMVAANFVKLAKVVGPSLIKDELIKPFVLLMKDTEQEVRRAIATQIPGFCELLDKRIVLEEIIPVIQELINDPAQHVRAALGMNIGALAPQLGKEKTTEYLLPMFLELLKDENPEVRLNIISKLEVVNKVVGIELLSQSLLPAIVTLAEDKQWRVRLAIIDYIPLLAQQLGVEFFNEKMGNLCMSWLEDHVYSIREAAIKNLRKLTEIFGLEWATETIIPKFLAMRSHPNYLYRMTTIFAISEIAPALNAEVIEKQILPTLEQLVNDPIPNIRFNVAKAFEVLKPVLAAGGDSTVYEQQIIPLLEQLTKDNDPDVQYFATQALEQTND
The assay can be described thus: affinity purification with mass spectrometry; YFP-tagged bait (Paa1-L-YFP or Pab1-L-YFP) on GFP-Trap beads; cells 1 hour in EMM2-N, crosslinked with 1% formaldehyde for 10 min at 25 °C; lysis buffer 25 mM Tris HCl pH 7.5, 150 mM NaCl, 0.5% SDS (diluted to 0.1%), 1% NP40; washes with 500 mM NaCl.

The next assay has as its target Pab1-L-YFP (S. pombe). The description is as above.

B1: Trm112 (protein, UniProt Q09723 1-126)
chain: MKLLTANFLNCSNKKCTSSPEAFPLDVVDAKLAIQQLELKPEFLIGIMPRIDWNALLKTTRQLGNYSLPDEKPDLVDDSDEVLLKSLHNVLLETEITEGKMVCGNCGHVYPIFEGIPNMLLSESEI
For the molecule B1, the binding result with Paa1-L-YFP (S. pombe) and with Pab1-L-YFP (S. pombe) was “binds” throughout.
